Source: paper PMC10359602
Construct, isoform or probe ends are uncertain for at least one entry. For some assays here: At least one verdict rests on a figure or table, not on a statement of the authors.

The chains behind the UniProt entries cited, without tags or fusion partners. Where a name states a change or a piece, a line headed by the entry shows the natural chain unless it says otherwise.
UniProt P0CAW2: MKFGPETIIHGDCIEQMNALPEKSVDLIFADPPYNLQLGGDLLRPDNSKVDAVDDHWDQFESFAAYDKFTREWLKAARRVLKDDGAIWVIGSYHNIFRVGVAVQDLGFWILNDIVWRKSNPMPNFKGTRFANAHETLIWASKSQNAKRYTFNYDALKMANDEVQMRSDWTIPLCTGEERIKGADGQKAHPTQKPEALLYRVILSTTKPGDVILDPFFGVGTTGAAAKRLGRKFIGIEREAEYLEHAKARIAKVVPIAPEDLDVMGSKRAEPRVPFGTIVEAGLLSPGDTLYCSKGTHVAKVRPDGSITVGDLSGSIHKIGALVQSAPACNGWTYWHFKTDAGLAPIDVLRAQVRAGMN

How the values were obtained:
[1] = target: CcrM W332Y (Caulobacter crescentus) (UniProt P0CAW2); experiment: fluorescence anisotropy; conditions: 30 uM SAH, Hill h = 0.9, apparent Kd, above tested range 0-1000 nM, N6-methyl-A at position 14 (5' to 3') of strand 2 (hemimethylated), Anisotropy: 10 nM FAM-DNA, 0-1000 nM protein, 100 mM HEPES, 1 mM EDTA, 20 mM NaCl, pH 8, room temperature, 20 min, recombinant protein, protein details: His-tag implied (HisTrap purification), label: 5' 6-FAM on strand 1
[2] = target: CcrM WT (Caulobacter crescentus) (UniProt P0CAW2); experiment: pyrrolo-dC fluorescence kinetics; conditions: SAM in excess, strand separation observed; pyrrolo-dC at position 15 of strand 1 (written C); N6-methyl-A at position 14 (5' to 3') of strand 2; recombinant protein; protein details: His-tag implied (HisTrap purification); label: pyrrolo-dC

Sequence	Kd [1]	binding result [2]
TCACTGTACTCTGACTCGCCTGACATGAC (double strand) [C1-FAM]	1.18 µM	–
TCACTGTACTCTGACTCGCCTGACATGAC (double strand) [P1]	–	binds
